Assay results published in article PMC5852159, “Hydrogen peroxide positively regulates brassinosteroid signaling through oxidation of the BRASSINAZOLE-RESISTANT1 transcription factor” (Nature Communications, 2018).
Results are given in words; binding and its absence hold for the method and conditions named. Binding seen in cells or lysates may run through a third protein. A result given as binding can be weak or reduced; the word gives no strength. Where a sequence is shown, tags or fusion partners need not be part of it.

Target: T1, TRXh5-nYFP (Arabidopsis thaliana) (UniProt Q39241)
T1 sequence: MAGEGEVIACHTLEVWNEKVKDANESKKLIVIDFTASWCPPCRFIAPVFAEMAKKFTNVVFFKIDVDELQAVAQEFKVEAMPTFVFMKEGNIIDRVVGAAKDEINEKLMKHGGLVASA
Assay: split reporter; BiFC in tobacco leaves: BZR1-cYFP or BES1-cYFP co-expressed with TRX-h proteins fused to nYFP

binding: binds
Substance: BES1-cYFP (Arabidopsis thaliana)
